# Measurements: the supplement of paper PMC4635364
# Counter-ions that a name gives are not always drawn. The list shows a part of the results. This data set is noisy: repeats of one test often differ as much as different tests do.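 Cells: ReNCell VM human fetal ventral-midbrain neural progenitors, differentiated mitogen-free. Blinded raters compared doublecortin-stained (early neurons) or tyrosine hydroxylase-stained (dopaminergic neurons) images with untreated wells, where 0 means no change. After repeats and both raters were averaged, compounds scoring 2 or above became hits for retesting.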
# Tests used:
# ReNCell VM [1] = assay: neuronal differentiation score (DCX+ cell fraction vs untreated, manual image score) (score (-3 to 3)); higher = more neuronal differentiation; conditions: 2 uM, 2 weeks
# ReNCell VM [2] = assay: dopaminergic neuron differentiation score (TH+ cell fraction vs untreated, manual image score) (score (0 to 3)); higher = more TH+ dopaminergic neuron differentiation; conditions: 2 uM, 4 weeks, BDNF 10 ng/ml + GDNF 10 ng/ml
structure (smiles),measurement,setting,value
NCCCC(O)(P(=O)(O)O)P(=O)(O)O [Alendronate sodium],neuronal differentiation score,ReNCell VM [1]; library: Prestwick,inactive: 0
same,dopaminergic neuron differentiation score,ReNCell VM [2]; library: Prestwick,inactive: 0
Nc1ncnc2c1ncn2C1OC(COP(=O)(O)O)C(O)C1O (stereo unspecified) [Adenosine 5'-monophosphate monohydrate],neuronal differentiation score,ReNCell VM [1]; library: Prestwick,inactive: 0
same,dopaminergic neuron differentiation score,ReNCell VM [2]; library: Prestwick,inactive: 0
Cc1nc2c(O)cccc2c(=O)[nH]1,neuronal differentiation score,ReNCell VM [1]; library: Tocriscreen,inactive: 0
same,dopaminergic neuron differentiation score,ReNCell VM [2]; library: Tocriscreen,inactive: 0
NC(=O)N/N=C/c1ccc([N+](=O)[O-])o1,neuronal differentiation score,ReNCell VM [1]; library: Spectrum,inactive: 0
same,dopaminergic neuron differentiation score,ReNCell VM [2]; library: Spectrum,inactive: 0
Oc1ccc(O)cc1,neuronal differentiation score,ReNCell VM [1]; library: Spectrum,inactive: 0
same,dopaminergic neuron differentiation score,ReNCell VM [2]; library: Spectrum,inactive: 0
O=C(c1ccc(Nc2nccc(-c3cc4ccccc4s3)n2)cc1)N1CCC(N2CCCC2)CC1,neuronal differentiation score,ReNCell VM [1]; library: Tocriscreen,inactive: 0
same,dopaminergic neuron differentiation score,ReNCell VM [2]; library: Tocriscreen,inactive: 0
COc1ccc(-c2coc3cc(O)ccc3c2=O)c(O)c1O,neuronal differentiation score,ReNCell VM [1]; library: Spectrum,inactive: 0
same,dopaminergic neuron differentiation score,ReNCell VM [2]; library: Spectrum,inactive: 0
OCc1ccccn1,neuronal differentiation score,ReNCell VM [1]; library: Spectrum,inactive: 0
same,dopaminergic neuron differentiation score,ReNCell VM [2]; library: Spectrum,inactive: 0
CC(=O)C1=C(O)C=C2Oc3c(C(C)=O)c(O)c(C)c(O)c3[C@]2(C)C1=O [usnic acid],neuronal differentiation score,ReNCell VM [1]; library: Natural,inactive: 0
same,dopaminergic neuron differentiation score,ReNCell VM [2]; library: Natural,inactive: 0
O=C(N[C@H](CO)[C@H](O)c1ccc([N+](=O)[O-])cc1)C(Cl)Cl [Chloramphenicol],neuronal differentiation score,ReNCell VM [1]; library: Prestwick,inactive: 0
same,dopaminergic neuron differentiation score,ReNCell VM [2]; library: Prestwick,inactive: 0
N[C@@H](CCC(=O)N[C@@H](CSN=O)C(=O)NCC(=O)O)C(=O)O [S-Nitrosoglutathione],neuronal differentiation score,ReNCell VM [1]; library: LOPAC,inactive: 0
same,dopaminergic neuron differentiation score,ReNCell VM [2]; library: LOPAC,inactive: 0
COC(=O)[C@H]1[C@H]2C[C@H]3c4[nH]c5ccccc5c4CCN3C[C@H]2CC[C@@H]1O,neuronal differentiation score,ReNCell VM [1]; library: Spectrum,inactive: 0
same,dopaminergic neuron differentiation score,ReNCell VM [2]; library: Spectrum,inactive: 0
CCOC(=O)[C@H](CCc1ccccc1)N[C@@H](C)C(=O)N1[C@H](C(=O)O)C[C@@H]2CCC[C@@H]21 [Ramipril],neuronal differentiation score,ReNCell VM [1]; library: Prestwick,inactive: 0
same,dopaminergic neuron differentiation score,ReNCell VM [2]; library: Prestwick,inactive: 0
CCCCn1c(=O)c2[nH]c(C34CC5CC(CC3C5)C4)nc2n(CCCO)c1=O,neuronal differentiation score,ReNCell VM [1]; library: Tocriscreen,inactive: 0
same,dopaminergic neuron differentiation score,ReNCell VM [2]; library: Tocriscreen,inactive: 0
NC(N)=NC(N)=Nc1cccc(Cl)c1 [1-(m-Chlorophenyl)-biguanide hydrochloride],neuronal differentiation score,ReNCell VM [1]; library: LOPAC,inactive: 0
same,dopaminergic neuron differentiation score,ReNCell VM [2]; library: LOPAC,inactive: 0
CCCCN1CCCC1CNC(=O)c1cc(C#N)c2ccccc2c1OC (stereo unspecified) [Nafadotride],neuronal differentiation score,ReNCell VM [1]; library: Tocriscreen,inactive: -3
same,dopaminergic neuron differentiation score,ReNCell VM [2]; library: Tocriscreen,inactive: 0
O=c1c(O)cc([C@H]2Oc3cc(O)cc(O)c3C[C@H]2O)cc2c([C@H]3Oc4cc(O)cc(O)c4C[C@H]3O)cc(O)c(O)c12,neuronal differentiation score,ReNCell VM [1]; library: Spectrum,inactive: 0
same,dopaminergic neuron differentiation score,ReNCell VM [2]; library: Spectrum,inactive: 0
COc1cc(OC)c(C(=O)CCCN2CCCC2)c(OC)c1,neuronal differentiation score,ReNCell VM [1]; library: Spectrum,inactive: 0
same,dopaminergic neuron differentiation score,ReNCell VM [2]; library: Spectrum,inactive: 0
C[C@]12CC[C@@H]3c4ccc(O)cc4CC[C@H]3[C@@H]1CC[C@@H]2O [Estradiol-17 beta],neuronal differentiation score,ReNCell VM [1]; library: Prestwick,inactive: 0
same,dopaminergic neuron differentiation score,ReNCell VM [2]; library: Prestwick,inactive: 0
"O=c1[nH]ccc2c(O)cccc12 [1,5-Isoquinolinediol]",neuronal differentiation score,ReNCell VM [1]; library: LOPAC,inactive: 0
same,dopaminergic neuron differentiation score,ReNCell VM [2]; library: LOPAC,inactive: 0
O=C(O)c1cc(=O)cc(C(=O)O)[nH]1 [Chelidamic acid],neuronal differentiation score,ReNCell VM [1]; library: LOPAC,inactive: 0
same,dopaminergic neuron differentiation score,ReNCell VM [2]; library: LOPAC,inactive: 1
CN1CCN(CCc2ccc(Cl)c(Cl)c2)CC1 [BD 1063 dihydrochloride],neuronal differentiation score,ReNCell VM [1]; library: Tocriscreen,inactive: 0
same,dopaminergic neuron differentiation score,ReNCell VM [2]; library: Tocriscreen,inactive: 1
"Cc1n[nH]c(=O)[nH]c1=O [Azathymine, 6]",neuronal differentiation score,ReNCell VM [1]; library: Phytochemical,inactive: 0
same,dopaminergic neuron differentiation score,ReNCell VM [2]; library: Phytochemical,inactive: 0
CC(C)(C(=O)O)c1ccc(C(O)CCCN2CCC(C(O)(c3ccccc3)c3ccccc3)CC2)cc1 (stereo unspecified),neuronal differentiation score,ReNCell VM [1]; library: Spectrum,inactive: 1
same,dopaminergic neuron differentiation score,ReNCell VM [2]; library: Spectrum,inactive: 0
C[C@@H]1C[C@H]2[C@@H]3CCC4=CC(=O)C=C[C@]4(C)[C@@]3(F)[C@@H](O)C[C@]2(C)[C@@]1(O)C(=O)CO [Dexamethasone],neuronal differentiation score,ReNCell VM [1]; library: Tocriscreen,inactive: -1
same,dopaminergic neuron differentiation score,ReNCell VM [2]; library: Tocriscreen,inactive: 0
CC(=O)Oc1ccc(C(c2ccc(OC(C)=O)cc2)c2ccccn2)cc1,neuronal differentiation score,ReNCell VM [1]; library: Spectrum,inactive: 0
same,dopaminergic neuron differentiation score,ReNCell VM [2]; library: Spectrum,inactive: 0
Cn1c(=O)c2c(ncn2C)n(C)c1=O,neuronal differentiation score,ReNCell VM [1]; library: Spectrum,inactive: 0
same,dopaminergic neuron differentiation score,ReNCell VM [2]; library: Spectrum,inactive: 0
CN1C(=O)CC[C@H]1c1cccnc1 [(-)-Cotinine],neuronal differentiation score,ReNCell VM [1]; library: LOPAC,inactive: 0
same,dopaminergic neuron differentiation score,ReNCell VM [2]; library: LOPAC,inactive: 0
C=C/C(C)=C/[C@@]1(C)SC(=O)C(C)=C1O [Thiolactomycin],neuronal differentiation score,ReNCell VM [1]; library: LOPAC,inactive: 0
same,dopaminergic neuron differentiation score,ReNCell VM [2]; library: LOPAC,inactive: 0
Cc1cc2nc3ccc(N(C)C)cc3[s+]c2cc1N,neuronal differentiation score,ReNCell VM [1]; library: Spectrum,inactive: 0
same,dopaminergic neuron differentiation score,ReNCell VM [2]; library: Spectrum,inactive: 0
O=C(NCC(O)CO)c1c(I)c(C(=O)NCC(O)CO)c(I)c(N(CCO)C(=O)CO)c1I (stereo unspecified),neuronal differentiation score,ReNCell VM [1]; library: Spectrum,inactive: 0
same,dopaminergic neuron differentiation score,ReNCell VM [2]; library: Spectrum,inactive: 0
Nc1[nH]cnc2ncnc1-2,neuronal differentiation score,ReNCell VM [1]; library: Spectrum,inactive: -1
same,dopaminergic neuron differentiation score,ReNCell VM [2]; library: Spectrum,inactive: 0
CN(C)CCC=C1c2ccccc2CCc2ccccc21 [Amitryptiline hydrochloride],neuronal differentiation score,ReNCell VM [1]; library: Prestwick,inactive: 0
same,dopaminergic neuron differentiation score,ReNCell VM [2]; library: Prestwick,inactive: 0

# Exported tab-delimited: entries from further up
structure (smiles)	measurement	setting	value
CN1CCN(CCc2ccc(Cl)c(Cl)c2)CC1 [BD 1063 dihydrochloride]	neuronal differentiation score	ReNCell VM [1]; library: Tocriscreen	inactive: 0
same	dopaminergic neuron differentiation score	ReNCell VM [2]; library: Tocriscreen	inactive: 1
